PubChem BioAssay AID720505 – Drosophila RNAi Screening Center – 2013
The deposit covers about 20,000 reagents; shown is an unselected part of those with a known target gene and a result. In the full data, about 2,100 (10%) are marked active. 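Raw plate signals without normalisation; calls rest on control-based scores that were not deposited; replicate 2 separates called from uncalled poorly.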 Entries without a mark were called inactive. Reagents against one gene are numbered here. A plus sign joins genes that one reagent is predicted to hit. Not stated in the record: the amount of reagent, the time to read-out.

Purpose: 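Genes needed for store-operated calcium entry in fly cells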 (primary screen)
Cells: Drosophila S2R+ cells
Reagent: long dsRNA against Drosophila genes
Treatment: thapsigargin (2 µM) in calcium-free buffer to empty internal stores, then 2 mM calcium added back
Measured: 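Fluo-4 signal in 384-well plates read on a FLIPR after thapsigargin (2 µM, calcium-free) store depletion and 2 mM calcium add-back; unnormalised mean endpoint per well; screen run twice, selected wells retested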
Direction: calcium signal and retest calcium signal: higher = more calcium entry after store depletion
Active means: 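About 1500 genes called as lowering calcium entry, by varying amounts, judged against per-plate control wells with STIM1 as positive and Rho1 as negative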
Meaning of the calls: active = called as lowering calcium entry; inactive = not called

With CG11951, how do the results read?
calcium signal, replicate 1: 162; calcium signal, replicate 2: 132

With Cam (Calmodulin) #1, what was measured?
calcium signal, replicate 1: 89.5; calcium signal, replicate 2: 147; retest calcium signal, replicate 1: 81; retest calcium signal, replicate 2: 87.3

How did the screen score Cam (Calmodulin) #2?
calcium signal, replicate 1: 96.7 (active); calcium signal, replicate 2: 160

What is on record for Naa20A (N(alpha)-acetyltransferase 20 A)?
calcium signal, replicate 1: 85.2; calcium signal, replicate 2: 93.3

How did the screen score Naa40 (N(alpha)-acetyltransferase 40)?
calcium signal, replicate 1: 172; calcium signal, replicate 2: 175

With Ent3 (Equilibrative nucleoside transporter 3), how do the results read?
calcium signal, replicate 1: 59.7 (active); calcium signal, replicate 2: 64.1

With CG12773, what was measured?
calcium signal, replicate 1: 130; calcium signal, replicate 2: 154

For mrn (marionette), what does the deposit list?
calcium signal, replicate 1: 134; calcium signal, replicate 2: 84.9

With CG15631, what was measured?
calcium signal, replicate 1: 201; calcium signal, replicate 2: 119

How did the screen score beta4GalNAcTA (beta1,4-N-acetylgalactosaminyltransferase A)?
calcium signal, replicate 1: 109; calcium signal, replicate 2: 158

With CG6345, what does the deposit list?
calcium signal, replicate 1: 135; calcium signal, replicate 2: 142

For Uqcc1 + CG9948, what was measured?
calcium signal, replicate 1: 113; calcium signal, replicate 2: 85.2

Which result is listed for mtrm (matrimony) #1?
calcium signal, replicate 1: 135; calcium signal, replicate 2: 117

What is on record for mtrm (matrimony) #2?
calcium signal, replicate 1: 122; calcium signal, replicate 2: 133

For CG9132, what was measured?
calcium signal, replicate 1: 119; calcium signal, replicate 2: 120

How did the screen score raptor?
calcium signal, replicate 1: 264; calcium signal, replicate 2: 84.3

What did the screen give for Mics1 (Mitochondrial morphology and cristae structure 1)?
calcium signal, replicate 1: 107; calcium signal, replicate 2: 177

With Arms (Ankyrin repeat-rich membrane spanning) #1, what does the deposit list?
calcium signal, replicate 1: 133; calcium signal, replicate 2: 10216; retest calcium signal, replicate 1: 93.4; retest calcium signal, replicate 2: 152

With Arms (Ankyrin repeat-rich membrane spanning) #2, what was measured?
calcium signal, replicate 1: 99.4; calcium signal, replicate 2: 8592

What is on record for Arms (Ankyrin repeat-rich membrane spanning) #3?
calcium signal, replicate 1: 165; calcium signal, replicate 2: 110

Which result is listed for Arms (Ankyrin repeat-rich membrane spanning) #4?
calcium signal, replicate 1: 108; calcium signal, replicate 2: 103

What did the screen give for CG12123?
calcium signal, replicate 1: 145; calcium signal, replicate 2: 70.3

Which result is listed for CG3511?
calcium signal, replicate 1: 174; calcium signal, replicate 2: 106

Which result is listed for brv1 (brivido-1)?
calcium signal, replicate 1: 130; calcium signal, replicate 2: 165

With CG9951, what was measured?
calcium signal, replicate 1: 101; calcium signal, replicate 2: 98.7

Which result is listed for dock (dreadlocks)?
calcium signal, replicate 1: 92.8; calcium signal, replicate 2: 206

What did the screen give for Scamp?
calcium signal, replicate 1: 82; calcium signal, replicate 2: 136

With Spn55B (Serpin 55B) #1, what does the deposit list?
calcium signal, replicate 1: 158; calcium signal, replicate 2: 94.9; retest calcium signal, replicate 1: 109; retest calcium signal, replicate 2: 97.7

Which result is listed for Spn55B (Serpin 55B) #2?
calcium signal, replicate 1: 70.8; calcium signal, replicate 2: 146

Part of the list above in another layout:
Ent3 (Equilibrative nucleoside transporter 3)
- calcium signal, replicate 1: 59.7 (active)
- calcium signal, replicate 2: 64.1

CG12773
- calcium signal, replicate 1: 130
- calcium signal, replicate 2: 154

mrn (marionette)
- calcium signal, replicate 1: 134
- calcium signal, replicate 2: 84.9

CG15631
- calcium signal, replicate 1: 201
- calcium signal, replicate 2: 119
